Assay results reported in article PMC7352202.
No constants are given. Whether binding was seen depends on the method and setting. For some assays here: Binding seen in cells or lysates may run through a third protein. Some results given as binding are weak or reduced against the parent protein; the word gives no strength. For some assays here: Where a sequence is shown, tags or fusion partners need not be part of it. Blank lines part the entries; values can stand above or below the binder they belong to.

Sequences of proteins named here, by UniProt entry; tags and fusion partners are left off.
UniProt Q05086: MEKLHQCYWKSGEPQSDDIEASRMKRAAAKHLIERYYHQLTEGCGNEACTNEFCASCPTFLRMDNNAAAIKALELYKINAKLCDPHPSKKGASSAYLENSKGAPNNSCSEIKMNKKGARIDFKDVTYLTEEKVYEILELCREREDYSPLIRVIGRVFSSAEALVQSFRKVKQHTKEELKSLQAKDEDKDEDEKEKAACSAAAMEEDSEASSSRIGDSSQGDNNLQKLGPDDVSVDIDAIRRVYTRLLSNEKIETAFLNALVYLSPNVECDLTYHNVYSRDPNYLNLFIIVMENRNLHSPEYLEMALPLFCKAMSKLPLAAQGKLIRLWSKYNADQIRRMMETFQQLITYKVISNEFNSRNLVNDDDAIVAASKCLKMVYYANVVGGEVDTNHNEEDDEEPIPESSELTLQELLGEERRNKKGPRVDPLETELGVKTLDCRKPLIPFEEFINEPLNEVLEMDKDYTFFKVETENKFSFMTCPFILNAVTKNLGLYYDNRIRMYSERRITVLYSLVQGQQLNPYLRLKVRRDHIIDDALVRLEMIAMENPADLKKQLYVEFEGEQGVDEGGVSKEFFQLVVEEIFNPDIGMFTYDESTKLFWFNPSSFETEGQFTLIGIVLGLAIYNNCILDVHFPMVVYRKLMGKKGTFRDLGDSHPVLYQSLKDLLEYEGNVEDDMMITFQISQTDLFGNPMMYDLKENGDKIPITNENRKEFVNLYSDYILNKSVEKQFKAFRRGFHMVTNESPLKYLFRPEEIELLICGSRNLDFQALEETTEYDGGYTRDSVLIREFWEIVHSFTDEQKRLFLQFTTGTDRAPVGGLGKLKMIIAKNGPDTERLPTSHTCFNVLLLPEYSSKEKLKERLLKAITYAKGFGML
UniProt O94874: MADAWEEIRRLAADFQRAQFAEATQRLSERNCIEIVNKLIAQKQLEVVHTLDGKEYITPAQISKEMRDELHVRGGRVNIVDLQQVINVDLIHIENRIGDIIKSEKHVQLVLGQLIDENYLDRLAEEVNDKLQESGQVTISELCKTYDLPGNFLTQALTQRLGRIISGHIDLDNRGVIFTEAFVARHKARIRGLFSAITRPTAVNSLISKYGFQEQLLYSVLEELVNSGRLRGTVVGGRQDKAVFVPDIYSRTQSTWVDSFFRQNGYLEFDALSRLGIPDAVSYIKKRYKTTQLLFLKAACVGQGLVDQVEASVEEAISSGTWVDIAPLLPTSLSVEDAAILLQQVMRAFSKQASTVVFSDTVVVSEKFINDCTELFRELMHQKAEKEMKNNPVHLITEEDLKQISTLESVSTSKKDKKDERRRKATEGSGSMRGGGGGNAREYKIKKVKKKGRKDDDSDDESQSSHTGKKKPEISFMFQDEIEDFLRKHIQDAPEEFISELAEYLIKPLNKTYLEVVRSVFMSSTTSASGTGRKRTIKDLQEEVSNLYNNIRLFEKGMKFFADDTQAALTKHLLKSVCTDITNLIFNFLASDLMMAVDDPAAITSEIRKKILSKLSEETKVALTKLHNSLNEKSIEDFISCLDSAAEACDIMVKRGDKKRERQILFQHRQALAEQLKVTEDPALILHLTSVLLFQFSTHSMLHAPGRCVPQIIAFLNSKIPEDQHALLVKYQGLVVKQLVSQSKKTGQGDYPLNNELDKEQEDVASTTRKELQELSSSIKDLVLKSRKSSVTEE

How the values were obtained:
[1] = biological target: UBE3A (yeast two-hybrid bait, pDEST32-UBE3A) (human) (UniProt Q05086); experiment: two-hybrid; library screen in yeast strain Mav203; E3 ligase bait in pDEST32, prey library of over 20,000 human ORFs in pDEST22; positive colonies survived on SD-4 (deficient in Ura, His, Leu and Trp) plates and were blue with X-Gal; hits identified by sequencing
[2] = biological target: UFL1 (yeast two-hybrid bait, pDEST32-UFL1) (human) (UniProt O94874); experiment: as above
GST-UFL1 (human) = GST-UFL1 (human) (UniProt O94874); experiment: pull-down; GST pull-down: purified GST-UFL1 (20 ug) and substrate-Flag-His6 (20 ug) with Glutathione Sepharose 4B beads, 4 °C overnight, 20 mM Tris-Cl, 100 mM NaCl, 5 mM MgCl2, 1 mM EDTA, 1 mM DTT, 0.5% NP-40, 10 ug/mL BSA, pH 7.5; immunoblot; both purified
[3] = biological target: UBE3A (in HEK293T cells, co-immunoprecipitation) (human) (UniProt Q05086); experiment: co-IP; HEK293T cell lysate in Co-IP buffer (50 mM Tris-Cl pH 7.5, 150 mM NaCl, 5.0 mM EDTA, 1.0% NP-40); specific antibodies with protein G agarose beads or anti-Flag affinity gels; immunoblot

B1: CRP (yeast two-hybrid prey, pDEST22) (protein, UniProt P02741 1-224)
chain: MEKLLCFLVLTSLSHAFGQTDMSRKAFVFPKESDTSYVSLKAPLTKPLKAFTVCLHFYTELSSTRGYSIFSYATKRQDNEILIFWSKDIGYSFTVGGSEILFEVPEVTVAPVHICTSWESASGIVEFWVDGKPRVRKSLKKGYTVGAEASIILGQEQDSFGGNFEGSQSLVGDIGNVNMWDFVLSPDEINTIYLGGPFSPNVLNWRALKYEVQGEVFTKPQLWP
binding [1]: binds

B2: TSC22D3 (yeast two-hybrid prey, pDEST22) (protein, UniProt Q99576 1-134)
chain: MNTEMYQTPMEVAVYQLHNFSISFFSSLLGGDVVSVKLDNSASGASVVAIDNKIEQAMDLVKNHLMYAVREEVEILKEQIRELVEKNSQLERENTLLKTLASPEQLEKFQSCLSPEEPAPESPQVPEAPGGSAV
binding [2]: binds

binding (GST-UFL1 (human)): binds
B3: TSC22D3-Flag-His6 (protein, UniProt Q99576 1-134)
chain: B2 chain

B4: MSTO1 (yeast two-hybrid prey, pDEST22) (protein, UniProt Q9BUK6 1-570)
chain: MAGGAREVLTLQLGHFAGFVGAHWWNQQDAALGRATDSKEPPGELCPDVLYRTGRTLHGQETYTPRLILMDLKGSLSSLKEEGGLYRDKQLDAAIAWQGKLTTHKEELYPKNPYLQDFLSAEGVLSSDGVWRVKSIPNGKGSSPLPTATTPKPLIPTEASIRVWSDFLRVHLHPRSICMIQKYNHDGEAGRLEAFGQGESVLKEPKYQEELEDRLHFYVEECDYLQGFQILCDLHDGFSGVGAKAAELLQDEYSGRGIITWGLLPGPYHRGEAQRNIYRLLNTAFGLVHLTAHSSLVCPLSLGGSLGLRPEPPVSFPYLHYDATLPFHCSAILATALDTVTVPYRLCSSPVSMVHLADMLSFCGKKVVTAGAIIPFPLAPGQSLPDSLMQFGGATPWTPLSACGEPSGTRCFAQSVVLRGIDRACHTSQLTPGTPPPSALHACTTGEEILAQYLQQQQPGVMSSSHLLLTPCRVAPPYPHLFSSCSPPGMVLDGSPKGAAVESIPVFGALCSSSSLHQTLEALARDLTKLDLRRWASFMDAGVEHDDVAELLQELQSLAQCYQGGDSLVD
binding [1]: binds

B5: IL24 (yeast two-hybrid prey, pDEST22) (protein, UniProt Q13007 1-206)
chain: MNFQQRLQSLWTLARPFCPPLLATASQMQMVVLPCLGFTLLLWSQVSGAQGQEFHFGPCQVKGVVPQKLWEAFWAVKDTMQAQDNITSARLLQQEVLQNVSDAESCYLVHTLLEFYLKTVFKNYHNRTVEVRTLKSFSTLANNFVLIVSQLQPSQENEMFSIRDSAHRRFLLFRRAFKQLDVEAALTKALGEVDILLTWMQKFYKL
binding [1]: binds

B6: MCM6 (yeast two-hybrid prey, pDEST22) (protein, UniProt Q14566 1-821)
chain: MDLAAAAEPGAGSQHLEVRDEVAEKCQKLFLDFLEEFQSSDGEIKYLQLAEELIRPERNTLVVSFVDLEQFNQQLSTTIQEEFYRVYPYLCRALKTFVKDRKEIPLAKDFYVAFQDLPTRHKIRELTSSRIGLLTRISGQVVRTHPVHPELVSGTFLCLDCQTVIRDVEQQFKYTQPNICRNPVCANRRRFLLDTNKSRFVDFQKVRIQETQAELPRGSIPRSLEVILRAEAVESAQAGDKCDFTGTLIVVPDVSKLSTPGARAETNSRVSGVDGYETEGIRGLRALGVRDLSYRLVFLACCVAPTNPRFGGKELRDEEQTAESIKNQMTVKEWEKVFEMSQDKNLYHNLCTSLFPTIHGNDEVKRGVLLMLFGGVPKTTGEGTSLRGDINVCIVGDPSTAKSQFLKHVEEFSPRAVYTSGKASSAAGLTAAVVRDEESHEFVIEAGALMLADNGVCCIDEFDKMDVRDQVAIHEAMEQQTISITKAGVKATLNARTSILAAANPISGHYDRSKSLKQNINLSAPIMSRFDLFFILVDECNEVTDYAIARRIVDLHSRIEESIDRVYSLDDIRRYLLFARQFKPKISKESEDFIVEQYKHLRQRDGSGVTKSSWRITVRQLESMIRLSEAMARMHCCDEVQPKHVKEAFRLLNKSIIRVETPDVNLDQEEEIQMEVDEGAGGINGHADSPAPVNGINGYNEDINQESAPKASLRLGFSEYCRISNLIVLHLRKVEEEEDESALKRSELVNWYLKEIESEIDSEEELINKKRIIEKVIHRLTHYDHVLIELTQAGLKGSTEGSESYEEDPYLVVNPNYLLED
binding [1]: binds

B7: ALDH1A2 (yeast two-hybrid prey, pDEST22) (enzyme, UniProt O94788 1-518)
chain: MTSSKIEMPGEVKADPAALMASLHLLPSPTPNLEIKYTKIFINNEWQNSESGRVFPVYNPATGEQVCEVQEADKADIDKAVQAARLAFSLGSVWRRMDASERGRLLDKLADLVERDRAVLATMESLNGGKPFLQAFYVDLQGVIKTFRYYAGWADKIHGMTIPVDGDYFTFTRHEPIGVCGQIIPWNFPLLMFAWKIAPALCCGNTVVIKPAEQTPLSALYMGALIKEAGFPPGVINILPGYGPTAGAAIASHIGIDKIAFTGSTEVGKLIQEAAGRSNLKRVTLELGGKSPNIIFADADLDYAVEQAHQGVFFNQGQCCTAGSRIFVEESIYEEFVRRSVERAKRRVVGSPFDPTTEQGPQIDKKQYNKILELIQSGVAEGAKLECGGKGLGRKGFFIEPTVFSNVTDDMRIAKEEIFGPVQEILRFKTMDEVIERANNSDFGLVAAVFTNDINKALTVSSAMQAGTVWINCYNALNAQSPFGGFKMSGNGREMGEFGLREYSEVKTVTVKIPQKNS
binding [1]: binds

binding [3]: binds
B8: ALDH1A2 (in HEK293T cells, co-immunoprecipitation) (enzyme, UniProt O94788 1-518)
chain: B7 chain
